Reference: article PMC10163288
This is one part of the list.

B1: il2ra_site1_1z92_sap_14_mot_HHH_b2_05238_af2_000000252_0001_38_55_H_._HHH_b2_07857_0001_0000100006_0000001_0_0001 (protein)
chain: SSSSDERLERAARVVVKMLVRMNRLSEEDEEKLEELARELVERGVSFEELLKILDELAAELSSSS
B2: il2ra_site2_3nfp_sap_22_mot_HHH_b2_06150_000000230_0001_39_53_H_._HHH_b2_00046_0001_0000400027_0000001_0_0001 (protein)
chain: SDEESAEYIEAALRLAKEAARDPRIQELIEEVLEEFEKAEEKNDEHALSEVTQKAMELAELAARS
B3: il2ra_site1_3nfp_normal_mot_eb5a5eebac1e5153f932cc6c3f4b2787_0001_af2_000000065_0001_18_33_H_._437ce1e4c44253f5d945988760af7e00_0001_af2_0001_0000600037_0000001 … (protein)
chain: DNQEIARILTELVRRVPPEVAELLYEVMRLLVKGDPEQAEKVLEEILELVGDPLVEELLELVRKL
B4: il2ra_site2_2erj_normal_mot_HHH_eva_0050_af2_000000198_0001_43_62_H_._HHH_b2_03364_0001_0000100003_0000001_0 (protein)
chain: SSSSDEELRELYELLNRLLHAISRGDEELAKELTEEVQERAKENDSPVVEKVAEHLLRLLTSSSS
B5: il2ra_site2_3nfp_sap_15_mot_HHH_b2_06897_000000042_0001_40_57_H_._493fd54309310d9249ba1f7ad6a52a72_0001_1_af2_0001_0000300025_0000001_0_0001 (protein)
chain: SSSSSEFERRLEELLKELEELVRQGNDEEFRRVAAEIAHLAFEGNDSEAYFRLAELAYEFISSSS
B6: il2ra_site1_2b5i_normal_mot_HHH_b1_01507_000000251_0001_20_36_H_._HHH_b2_06566_af2_0001_0000100007_0000001_0_af2pred_dldesign_0_af2pred (protein)
chain: SSSSNPELAKRIREAVEEATRLFAAGREEEARAVLEAARRLAEENNAHGWARFLEACLKSISSSS
B7: il2ra_site2_2erj_sap_22_mot_HHH_b1_05634_000000106_0001_21_37_H_._HHH_b2_05401_0001_0000100002_0000001_0_0001 (protein)
chain: SSSSLREAYELAARALARLAEAAENNDEELLERIAEEVQKELKELGTPDAAEMLEEESEAQSSSS
B8: il2ra_site1_3nfp_sap_14_mot_7a4252a17c26caee427851ffd8bc664f_0001_000000055_0001_1_12_H_._HHH_b1_02810_af2_0001_0000200009_0000001_0_0001_af2pred_0001_af2pred_1 (protein)
chain: SSSSSSAVHEFTELLRRAREALKEGDEELVEEILERLRELAERRNDPIARRAVEWLERKGSSSSS
B9: il2ra_site2_2erj_sap_13_mot_HHH_b1_03596_000000047_0001_40_56_H_._ems_3hM_1289_0001_0000200003_0000001_0_0001_af2pred_0001_af2pred (protein)
chain: SSSSDWRREVRELLRRVDEAAKRGNPEEAEELLEEAERIAEEADNRSAERFIRESKRLVRLSSSS
B10: il2ra_site2_3nfp_sap_26_mot_HHH_b2_07749_000000092_0001_22_39_H_._7f845fc392f084dc2c3019ce91433427_0001_1_af2_0001_0000300017_0000001_0_0001 (protein)
chain: SSSSSDQEFEIVVEYAKAAIALRNDPELLEQVEELEEEYREEGDPRYLELIRRILAELARSSSSS
B11: il2ra_site2_2erj_normal_mot_HHH_b2_03173_af2_000000175_0001_41_57_H_._HHH_b2_06363_0001_0000200039_0000001_0 (protein)
chain: SSSSDEYLRRLFELANLVLHLLWEGDEEEVEELLEELRKLAEEAQSEAAREVVERAEEELSSSSS
B12: il2ra_site1_1z92_normal_mot_HHH_b2_00385_000000257_0001_1_19_H_._HHH_b1_02934_0001_0000100001_0000001_0_af2pred_0001_af2pred_1 (protein)
chain: SSSSNEEELLKKLLKALENAIEKGNEKRFEKLVRFIELLAEELGDEEIERLLEELRREFHSSSSS
B13: il2ra_site1_2b5i_normal_mot_ems_3hM_3687_af2_000000248_0001_45_64_H_._HHH_b1_08112_af2_0001_0000300041_0000001_0_af2pred_dldesign_0_af2pred (protein)
chain: SSSSSPTRKEVEKLIEEAKALKAAGKRREALETLEKAKKLADENDDEELEEEIEKLVKELSSSSS
B14: il2ra_site1_3nfp_normal_mot_HHH_b1_03420_af2_000000029_0001_41_57_H_._HHH_b2_02212_af2_0001_0000200013_0000001_0 (protein)
chain: SSSSDAAQRADRLLRELLEALKEGDEELIERLREEIKRLAEEANSRLLEYLLKELEKLLGSSSSS
B15: il2ra_site2_3nfp_normal_mot_HHH_b1_06677_000000111_0001_20_36_H_._HHH_b2_06317_0001_0000200029_0000001_1 (protein)
chain: SSSDETEERVEELLREVEKLIKEGNEEEAKRVLSEAALVAAEGRDHEAFMLVNELLARLARSSSS
B16: il2ra_site1_2b5i_sap_10_mot_HHH_b1_02496_000000173_0001_1_19_H_._ems_3hM_482_af2_0001_0000700026_0000001_0_0001_af2pred_dldesign_0_af2pred (protein)
chain: SSSSDEKYEEVERLFDEATELYRAGKREEAKELLEKALELAKEAGEEKIVKELETLLKRLESSSS
B17: il2ra_site2_2erj_sap_18_mot_af86707857d369f3e1d85dcabc5f9321_0001_000000201_0001_14_29_H_._HHH_b2_03212_af2_0001_0000400015_0000001_0_0001 (protein)
chain: SSSLHETYELAVEATHLIARLLEEGNPEEAEKVLEEFLKRLEELDDPNAARLLQETFEVQKSSSS
B18: il2ra_site1_3nfp_sap_20_mot_HHH_b2_03042_af2_000000210_0001_23_39_H_._HEEHE_1101_0001_0000200023_0000001_0_0001_af2pred_0001_af2pred_1 (protein)
chain: SSEELLEELVEITVENNSPHVLRKILRALEAFLGDPEEAERLLEELIEKVLGDPEEAERLVREAK
B19: il2ra_site2_2erj_sap_30_mot_HHH_b2_03659_000000135_0001_38_56_H_._HHH_b2_07963_0001_0000300032_0000001_0_0001 (protein)
chain: SSSSSDLRELFRLASELMRAIHEGDEELFRELVEEIRRLAEETNSENAREILEWLEKHFHSSSSS
B20: il2ra_site1_3nfp_normal_mot_16934e337390fad51c35c10e6cd388ee_0001_1_000000171_0001_52_65_H_._HHH_b1_02546_af2_0001_0000100012_0000001_0 (protein)
chain: SSSSDEVKEADRIAREILELKKQGNHEEARRLLEELKEFAEERNDKILEKFVKQLEELLKSSSSS
B21: il2ra_site1_2b5i_sap_14_mot_HHH_b2_06557_000000121_0001_42_56_H_._HHH_b1_07957_0001_0000300032_0000001_1_0001_af2pred_0001_af2pred_1 (protein)
chain: SSSSDEERAEELVEDLLELAKKIDDPKRALNIVLLALATAKKKNNEELEEEVERVLEELRSSSSS
B22: il2ra_site2_2erj_normal_mot_HHH_b1_00941_000000060_0001_45_58_H_._HHH_b2_00695_0001_0000400014_0000001_0_af2pred_0001_1_af2pred_swapped (protein)
chain: SSSSSSDVEERVEELLEEAEKIKDKREAAKVLEEASKLAARNNNEELLELIDEVFRRLSSSSSSS
B23: il2ra_site2_3nfp_normal_mot_HHH_b1_03818_000000217_0001_1_20_H_._HHH_b1_07779_af2_0001_0000100024_0000001_0 (protein)
chain: SSSSDEEEERILRLLIEIYELLKKGDPEEAKELIKEAHELIRELGDEQLEKLLKIAEEAVHSSSS
B24: il2ra_site2_3nfp_normal_mot_HHH_b1_00660_af2_000000090_0001_40_57_H_._ems_3hC_866_af2_0001_0000100002_0000001_1 (protein)
chain: SEEEKEAIEELEEQLREAVERNDKELIREIIRLIAHFVHEFRDDPKAFELFALATEARELVIHAS
B25: il2ra_site2_2erj_sap_28_mot_HHH_b1_08185_000000106_0001_41_55_H_._HHH_b2_03845_af2_0001_0001200037_0000001_0_0001 (protein)
chain: SSSSDEEEERLEELVERAERLLKEGNPEEAWEVLREAATLAWELGDEEIWSRLSKLTAEVASSSS
B26: il2ra_site2_3nfp_normal_mot_HHH_b1_04781_af2_000000057_0001_1_18_H_._HHH_b2_00872_0001_0000300014_0000001_1 (protein)
chain: SSSSDKERLEEAIRMALDIAHANNDEEVFRRIEELLEEFKEEGDPRYTLEAYELALEAYRKSSSS
B27: il2ra_site1_2b5i_normal_mot_HHH_b2_04910_000000118_0001_1_19_H_._HHH_b1_02607_0001_0000100006_0000001_1_af2pred_0001_af2pred (protein)
chain: SSSSDREELKELLREANELFKNGDPEEAERVLREAIELARELGDRAALKFLEVALKIIEASSSSS
B28: il2ra_site2_3nfp_sap_22_mot_HHH_b2_05582_af2_000000159_0001_22_38_H_._HHH_b2_07708_af2_0001_0000200013_0000001_0_0001 (protein)
chain: SSSSDKAEEYLRAARELIKRAIEEGDEESARRMLEVAINAAEDNGDEEALEELQEILEKLSSSSS
B29: il2ra_site2_2erj_normal_mot_HHH_b2_01204_af2_000000056_0001_19_34_H_._HHH_b1_00244_af2_0001_0000700018_0000001_0 (protein)
chain: SSSSDEELERRIEELLKEAEELYERGNLEEVYKLLVEALHLASKNQDQEAIRLVAEVAERLSSSS
B30: il2ra_site1_2b5i_normal_mot_HHH_b1_08745_af2_000000166_0001_39_57_H_._HHH_b1_02799_0001_0000100008_0000001_0_af2pred_dldesign_0_af2pred (protein)
chain: SSSSSPEGKEVLRLLEEAEAALKAGDEAGARALLEKALEIAKKAKSNLFVKFVEAALKALESSSS
B31: il2ra_site2_2erj_sap_21_mot_HHH_b2_06331_000000250_0001_1_15_H_._72ba95a0bb9e9d4b8a33329b97f5ad30_0001_1_0001_0000200003_0000001_1_0001 (protein)
chain: SSSSSDHVERVAELMREAVELSQNGNPEEAREVLEEALEIAQEGGDPELERAVELMIEFLSSSSS
B32: il2ra_site2_3nfp_normal_mot_HHH_b1_05785_af2_000000002_0001_41_57_H_._HHH_b2_03829_0001_0000400018_0000001_0 (protein)
chain: SSSSSKHERLIRLALESLETAIREGDEEKIRLSEEYIRAAIELANDEEAQRILEELEEELSSSSS
B33: il2ra_site2_2erj_sap_18_mot_HHH_b1_05020_af2_000000060_0001_23_40_H_._HEEHE_2487_0001_0000700037_0000001_0_0001 (protein)
chain: SSSSSEELHELFELIQELMRLLHEGDEERIRELREELEKLAEKLGSPETVRMVRKQVEAQLSSSS
B34: il2ra_site1_2b5i_normal_mot_HHH_b2_04910_000000118_0001_1_19_H_._HHH_b2_01402_0001_0000100006_0000001_0_af2pred_dldesign_0_af2pred (protein)
chain: SSSSNLEEARRLFLEADRLFQAGKKEEALETLEKAKKLAKEAGATLLTKMIEIAIKNLKENSSSS
B35: il2ra_site2_3nfp_normal_mot_HHH_b2_08245_000000023_0001_41_55_H_._HHH_b1_05961_0001_0000500029_0000001_0_af2pred_0001_af2pred (protein)
chain: SSSSSSDVEEEVEELLEEAKKADDELRRKLLLLEARRLAEEREDEELRRLVEEVAQELSSSSSSS
B36: il2ra_site2_3nfp_normal_mot_HHH_b1_00660_af2_000000090_0001_40_57_H_._HHH_b2_01268_0001_0000600053_0000001_0_af2pred_0001_af2pred (protein)
chain: SSSSSDEEEEEVEELLEEAKRIPDPEERERVLHRAALIAVEANDFELFALVNRVLEKLTSSSSSS
B37: il2ra_site1_1z92_sap_17_mot_HHH_b1_05516_af2_000000202_0001_21_38_H_._HHH_b1_00975_0001_0000200011_0000001_0_0001_af2pred_0001_af2pred_1 (protein)
chain: SEELLESVRRFAGGDPEKILRILLRIAKTQGELSPEQLEELEEKIREAIEKNDPRVEELLKELAN

What follows are binders tested against il2ra, P01589 (assay: yeast display titration).

Apparent Kd, inactive:
B1 no binding seen, B2 no binding seen, B3 no binding seen, B4 no binding seen, B5 no binding seen, B6 no binding seen, B7 no binding seen, B8 no binding seen, B9 no binding seen, B10 no binding seen, B11 no binding seen, B12 no binding seen, B13 no binding seen, B14 no binding seen, B15 no binding seen, B16 no binding seen, B17 no binding seen, B18 no binding seen, B19 no binding seen, B20 no binding seen, B21 no binding seen, B22 no binding seen, B23 no binding seen, B24 no binding seen, B25 no binding seen, B26 no binding seen, B27 no binding seen, B28 no binding seen, B29 no binding seen, B30 no binding seen, B31 no binding seen, B32 no binding seen, B33 no binding seen, B34 no binding seen, B35 no binding seen, B36 no binding seen, B37 no binding seen
